Data: article PMC6386010
No constants are given. Whether binding was seen depends on the method and setting. In cells and extracts the contact can be indirect. Some binding calls cover weakened binding; strength is not graded here.

By UniProt entry, the sequences of proteins in these tests, tags left out. Residues count along the entry.
UniProt P63165, residues 1-97: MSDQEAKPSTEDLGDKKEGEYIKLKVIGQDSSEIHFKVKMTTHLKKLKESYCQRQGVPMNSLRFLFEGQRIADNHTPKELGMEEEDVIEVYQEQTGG
UniProt Q01959: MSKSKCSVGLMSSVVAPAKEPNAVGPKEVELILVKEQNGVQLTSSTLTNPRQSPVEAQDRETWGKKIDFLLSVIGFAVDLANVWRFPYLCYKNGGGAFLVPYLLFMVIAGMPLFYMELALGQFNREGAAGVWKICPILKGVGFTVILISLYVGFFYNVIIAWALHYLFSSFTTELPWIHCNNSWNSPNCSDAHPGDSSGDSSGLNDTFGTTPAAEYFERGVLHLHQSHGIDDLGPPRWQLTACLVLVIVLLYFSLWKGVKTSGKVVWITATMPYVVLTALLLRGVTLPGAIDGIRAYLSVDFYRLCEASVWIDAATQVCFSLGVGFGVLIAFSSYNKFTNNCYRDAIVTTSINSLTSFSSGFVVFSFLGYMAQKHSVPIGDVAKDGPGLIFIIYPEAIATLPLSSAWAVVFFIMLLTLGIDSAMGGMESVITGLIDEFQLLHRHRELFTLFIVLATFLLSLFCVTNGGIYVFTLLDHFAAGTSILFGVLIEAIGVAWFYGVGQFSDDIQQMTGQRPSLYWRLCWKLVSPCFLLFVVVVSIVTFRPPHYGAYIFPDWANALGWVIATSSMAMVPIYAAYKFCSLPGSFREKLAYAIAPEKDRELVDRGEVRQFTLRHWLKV

Molecular target: SUMO1-HA (UniProt P63165)
Assay: co-IP; HEK-DAT cells transfected with SUMO1-HA; fresh lysate in RIPA buffer with 20 mM NEM and protease inhibitors; immunoprecipitated with rabbit anti-SUMO1 (rabbit IgG as control), 4°C overnight; blotted with anti-HA and anti-DAT (MAB)

Q: For “dopamine transporter (DAT), stably expressed in HEK-293 cells (HEK-DAT) (from UniProt Q01959 1-620)”, which binding is on record?
A: Its binding is “binds”.
